Results reported in paper PMC7190567.
Results are given in words; binding and its absence hold for the method and conditions named. Binding seen in cells or lysates may run through a third protein. These calls come from enrichment with a bait or labelling near it, and not all partners need be listed.

Biological target: T1, Caveolin-1 (wild type) (dog) (UniProt P33724)
T1 sequence: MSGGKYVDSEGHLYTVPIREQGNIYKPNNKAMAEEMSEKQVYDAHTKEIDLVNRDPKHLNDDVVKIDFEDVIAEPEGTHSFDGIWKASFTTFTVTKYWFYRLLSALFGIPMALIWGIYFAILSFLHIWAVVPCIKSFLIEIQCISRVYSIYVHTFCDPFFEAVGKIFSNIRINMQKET
Assay: affinity purification with mass spectrometry; CAV1 immunoprecipitated with polyclonal anti-CAV1 on Dynabeads from B16F10(CAV1) cells (no E-cadherin); trypsin digest, nano-ESI-MS/MS on an LTQ ion trap, Mascot; only proteins unique to this sample listed

| Binder | binding |
| --- | --- |
| Amyloid beta A4 precursor protein-binding family B member 2 (protein, UniProt Q9DBR4 1-760) MSEVLPADSGVGTLAVFMASSGSTDIANRNSPATPPNTLNLRSSHNELLNAEIKHSDAKNSTPPKCRKKYALTNIQAAMGLSDPAVQPLLGNGSANIKLVKNGENQLRKAAEQGQQDPNKNLSPAAVINLTSEKLEVKDPHPQESSGCEILPSQPRRTKSFLNYYADLETSARELGQNLGPCQGVGEEKAQPGPGQAPVVIGNGDLLPQKPNKPQSSPEDGQVATVSSSPETKKDHPKTGAKTDCALHRIQNLAPSDEESSWTTLSQDSASPSSPDETDIWSDHSFQTDPDLPPGWKRVNDIAGTYYWHIPTGTTQWERPVSIPADLHGSRKGSLSSVTPSPTPENEKQPWSDFAVLNGGKINSDIWKDLHAATVNPDPSLKEFEGATLRYASLKLRNAPHGDDDDSCSINSDPEAKCFAVRSLGWVEMAEEDLAPGKSSVAVNNCIRQLSYCKNDIRDTVGIWGEGKDMYLSLENDMLSLVDPMDRSVLHSQPIVNIRVWGVGRDNGRERDFAYVARDKDTRILKCHVFRCDTPAKAIATSLHEICSKIMAERKNAKALACSSLQERTNMSLDVPLQVDFPTPKTELVQKFRVQYLGMLPVDRPVGMDTLNSAIENLMTSSSKEDWPSVNMNVADATVTVISEKNEEEVLVECRVRFLSFMGVGKDVHTFAFIMDTGNQRFECHVFWCEPNAANVSEAVQAACMLRYQKCLVARPPSQKVRPPPPPADSVTRRVTTNVKRGVLSLIDTLKQKRPVTETP | binds |
| Spermatogenesis-associated protein 17 (protein, UniProt Q9D552 1-379) METNSNNFGELQELKDMATLAKLLARAPFLESQYYFRNRAVDSFRKFENDAAVMIQSWFRGCQVRAYMRHLNRVVTIIQKWWRSYLGRKFYQLVVEAAYYTMKMNLYNEMAVRIQRRWRGFRIRKYCFNYYYLKEYLRAVSETNDAIREALEEFAEMKEREERKVLLEREEKQKDYQARKMHYLLSTKQISGIYNSPFREHPDPWELRLQKAKPLGHQKYTAEKGKTSQSPSNWLACTSVHSFPQSESLPPISRKRCQGPFRDINEVLEQRYKPLEPTLRVAEPINHLRLAREAFKQEERMRNVQDKMFLPFSSYHKKEKYIPMIHSSSAYNSDSYGQKHFRSQDSKKWISDKDFQTVLPSFQLFSKYGKLYSKAGEIV | binds |
| RNA exonuclease 1 homolog (protein, UniProt Q7TT28 1-1213) MLRSTGFFRSIDCPYWAGAPGGPCRRPYCHFRHRGARGPGAPGSGGAASPASGLGYDPYNPELPQPPVQRENGALGQGDGMLELELVNQAIEAVRGEVELEQRRYQELLETARGHSAGPSALAPCSPATSIDDDDTFSLALTYTPGGLLSPDAAYQPTPLAVPAEPGHKYSLAPSDRSQGRAAGGAGALEYVPKAVGQPRRCGRPVSGGKYVVDSSKPSTDLEYDPLSNYSARHLGRASARDERATKRPRGSRGAEPYTPALKKPCDPFGGCEARFSDSEDDVTSPPKADVSSPKAGADPESKAPGKPVSKEGREHEDGGLRGTKEMAVQYDVEDLGQPPKAPDTVSVVKPGSPARASQDARVPKEGKAKKKKSGTSASLSHKDKVRKKDKKKEKDPARPRGKEKVCTDKKKLPASNPRGKAQGPEGTKKKPSSATTVASSGKGGSGRPSSTGPQDSGPGPHAPLAWKAGSAKKMSSGKLVERKARSLDEGAPQDTPKLKKRALSHAELFGDESEEEDSSLGAGAPRVWPPTLPSLSSDSESDSDSSLGLDETKVPKRLKAAPPASPVPPSPLSSSSSSSGASQCAEEDVDYSALEKEVDFDVDPMEECLRIFNESTSVKTEDKGRLARQPPKEKAEEKTHAGLTTLFPGQKRRVSHLCKPGKESEAPKRTPVAPPARPPTAQEVCYRRAQLAQRDSASWLQAAPRPTERLSSVHISAPGEKRRIAHVPNPRLAAAPTGAKRALSASSSQASHGPEPGSQPLKTRTLSGMASKTTTTVTPKRIAHSPSLQSLKKPVIPKEFGGKVPTVVRQRYLNLFIEECLKFCSSNQEAIEKALNEEKVAYDRSPSKNIYLNVAVNTLKKLRGLVPNTVPNLSKASGRRVVSHEVVLGGKLAAKTSFSLSRPSSPRVEELKGTALYSRLREYLLTQEQLKENGYPFPHPERPGGAIIFTAEEKKPKDPSCRICCRCGTEYLVSSSGRCVRSEECYYHWGRLRRNRVAGGWETQYMCCSAAVGSVGCQVAKQHVQDGRKENLEGFVRTFQKELPEDAHAGVFALDCEMSYTTYGLELTRVTVVDTDMQVVYDTFVKPDNEVVDYNTRFSGVTEADLVDTSITLRDVQAVLLSMFSADTILIGHSLESDLLALKVIHGTVVDTSVLFPHRLGLPYKRSLRNLMADYLRQIIQDNVDGHSSSEDASACMHLVIWKIREDAKTKR | binds |
| Sorting nexin 14 (protein, UniProt Q8BHY8 1-964) MWLRRRGLGVPSASASEGGTSSPAWTEMGSWVRTICGRLKQRLRLDVGREICRQYPLFCFLLLCLSVASLLLNRYLHVLMIFWSFVAGVVTFYCSLGPDSLLPNIFFTIKYKPKQLGLQELFPQGHSCAVCGKVKCKRHRPSLLLENYQPWLDLKVSSKVDASLSEVLELVLENFVYPWYRDVTDDESFVDELRITLRFFASVLVRRIHKVDIPSIITKKLLKAAMKHIEVIVKARQKVKNTEYLQQAALEEYGPELHVALRSRRDELQYLRKLTELLFPYILPPKATDCRSLTLLIREILSGSVLLPSLDFLADPDTVNHLLIIFIDDSPPEKATEPASPLVPFLQKFAEPRNKKPSVLKLELKQIREQQDLLFRFMNFLKQEGAVHVLQFCLTVEEFNDRILRPELSNDEMLSLHEELQKIYKTYCLDESIDKIRFDPFIVEEIQRIAEGPYIDVVKLQTMRCLFEAYEHVLSLLENVFTPMFCHSDEYFRQLLRGAESPTRNSKFNRSTQKRGESFGISRIGSKIKGVFKSTTMEGAVLPNYGVAEGEDDFIEEGIVVMEDDSPVEAVSTPNTPRNLAAWKISIPYVDFFEDPSSERKEKKERIPVFCIDVERNDRRAVGHEPEHWSVYRRYLEFYVLESKLTEFHGTFPDAQLPSKRIIGPKNYEFLKSKREEFQEYLQKLVQHPELSNSQLLADFLSPNGGETQFLDKILPDVNLGKIIKSVPGKLMKEKGQHLEPFIMSFINSCESPKPKPSRPELTILSPTSENNKKLFNDLFKNNANRAENTERKQNQNYFMEVMTVDGVYDYLMYVGRVVFQVPDWLHHLLMGTRILFKNTLEMYTDYYLQCKLEQLFQEHRLVSLITLLRDAIFCENTEPRSLQDKQKGAKQTFEEMMNYIPDLIVKCIGEETKYESIRLLFDGLQQPVLNKQLTYVLLDIVIQELFPELNKVQKEATSMTSWM | binds |
| Syntaxin-5 (protein, UniProt Q8K1E0 1-355) MIPRKRYGSKNTDQGVYLGLSKTQVLSPATAISSSSDSTPLPTPVALVPSPPDTMSCRDRTQEFQSACKSLQSRQNGIQTSKPALHAARQCSEFTLMARRIGKDLSNTFAKLEKLTILAKRKSLFDDKAVEIEELTYIIKQDINSLNKQIAQLQDFVRAKGSQSGRHLQTHSNTIVVSLQSKLASMSNDFKSVLEVRTENLKQQRNRREQFSRAPVSALPLAPNNLGGGPIILGAESRASRDVAIDMMDPRTSQQLQLIDEQDSYIQSRADTMQNIESTIVELGSIFQQLAHMVKEQEETIQRIDENVLGAQLDVEAAHSEILKYFQSVTSNRWLMVKIFLILIVFFIIFVVFLA | binds |
| Magi3, Membrane associated guanylate kinse, WW and PDZ domain containing 3 (protein, UniProt Q9EQJ9 1-1476) MSKTLKKKKHWLSKVQECAVSWAGPPGDLGAEIRGGAERGEFPYLGRLRDEAGGGGGTCCVVSGKAPSPGDVLLEVNGTPVSGLTNRDTLAVIRHFREPIRLKTVKPGKVINKDLRHYLSLQFQKGSIDHKLQQVIRDNLYLRTIPCTTRAPRDGEVPGVDYNFISVEQFKALEESGALLESGTYDGNFYGTPKPPAEPSPFQPDPVDQVLFDNEFDTESQRKRTTSVSKMERMDSSLPEEEEDEDKEAVNGSGSMETREMHSETSDCWMKTVPSYNQTNSSMDFRNYMMRDENLEPLPKNWEMAYTDTGMIYFIDHNTKTTTWLDPRLCKKAKAPEDCEDGELPYGWEKIEDPQYGTYYVDHLNQKTQFENPVEEAKRKKQLGQAEIHSAKTDVERAHFTRDPSQLKGVLVRASLKKSTMGFGFTIIGGDRPDEFLQVKNVLKDGPAAQDGKIAPGDVIVDINGNCVLGHTHADVVQMFQLVPVNQYVNLTLCRGYPLPDDSEDPVVDIVAATPVINGQSLTKGETCMNTQDFKLGAMVLDQNGKSGQILASDRLNGPSESSEQRASLASSGSSQPELVTIPLIKGPKGFGFAIADSPTGQKVKMILDSQWCQGLQKGDIIKEIYHQNVQNLTHLQVVEVLKQFPVGADVPLLILRGGPCSPTKTAKTKTDTKENSGSLETINEPIPQPMPFPPSIIRSGSPKLDPSEVYLKSKTLYEDKPPNTKDLDVFLRKQESGFGFRVLGGDGPDQSIYIGAIIPLGAAEKDGRLRAADELMCIDGIPVKGKSHKQVLDLMTTAARNGHVLLTVRRKIFYGEKQPEDESHQAFSQNGSPRLNRAELPTRSAPQEAYDVTLQRKENEGFGFVILTSKSKPPPGVIPHKIGRVIDGSPADRCGGLKVGDHISAVNGQSIVDLSHDNIVQLIKDAGVTVTLTVVAEEEHHGPPSGTNSARQSPALQHRPMGQAQANHIPGDRIALEGEIGRDVCSSYRHSWSDHKHLAQPDTAVISVVGSRHNQSLGCYPVELERGPRGFGFSLRGGKEYNMGLFILRLAEDGPAIKDGRIHVGDQIVEINGEPTQGITHTRAIELIQAGGNKVLLLLRPGTGLIPDHGDWDTNSPSSSNVIYDEQPPPLPSSHSASTFEESHVPATEDSLTRVQICEKAEELKDTVQEKKSTLNGSQPEMKYQSVHKTMSKKDPPRGSGHGEKSRLKGENGVTRRGRSASPKKSVNRHSEEHLEKIPRPLKSDPKEKSRDRSLSPRKGESKGRLTIKAGSGQDPYRKDRGRSSSPKKQQKIGGNSLSNTEGKLSEAGSRRAAGHPRDSTEQLPDGREKSGVSRKDLKQSQPGKTRTKSPEKKSSKVDETSLPSKKTSSTAGRVVSEKEKGKKPTAGETSRETVEHTQISAKQLKQEAQEKTALGNADDHKGRESEVTDRCRERAGCTPQSSSLVKKAPITPGPWRVPRANKVTGTTGMADKQL | binds |
| Acetylcholinesterase collagenic tail peptide (protein, UniProt O35348 30-457) VVPISAALPGLDQKKRGSHKACCLLMPPPPPLFPPPFFRGSRSPLLSPDMKNLLELEASPSPCIQGSLGSPGPPGPQGPPGLPGKTGPKGEKGDLGRPGRKGRPGPPGVPGMPGPVGWPGPEGPRGEKGDLGMMGLPGSRGPMGSKGFPGSRGEKGSRGERGDLGPKGEKGFPGFPGMLGQKGEMGPKGESGLAGHRGPTGRPGKRGKQGQKGDSGIMGPPGKPGPSGQPGRQGPPGPPGPPSAGQLVMGLKGERGFPGPPGRCLCGPPVNVNNPSYGDSMYGRGSPRVPAIFVVNNQEELERLNTQNAIAFRRDQRSLYFKDSLGWLPIQLTPFYPVGYTVKQPGTCGDGVLQPGEECDDGNPDVSDGCIDCHRAYCGDGYRHQGVEDCDGSDFGYLTCETYLPGSYGDLRCTQYCSIDSTPCRYFT | binds |
